Test results reported in publication PMC5951908.
No constants are given. Whether binding was seen depends on the method and setting. In cells and extracts the contact can be indirect. Some binding calls cover weakened binding; strength is not graded here.

T1: Aurora A (human (endogenous in HeLa)) (UniProt O14965)
T1 sequence: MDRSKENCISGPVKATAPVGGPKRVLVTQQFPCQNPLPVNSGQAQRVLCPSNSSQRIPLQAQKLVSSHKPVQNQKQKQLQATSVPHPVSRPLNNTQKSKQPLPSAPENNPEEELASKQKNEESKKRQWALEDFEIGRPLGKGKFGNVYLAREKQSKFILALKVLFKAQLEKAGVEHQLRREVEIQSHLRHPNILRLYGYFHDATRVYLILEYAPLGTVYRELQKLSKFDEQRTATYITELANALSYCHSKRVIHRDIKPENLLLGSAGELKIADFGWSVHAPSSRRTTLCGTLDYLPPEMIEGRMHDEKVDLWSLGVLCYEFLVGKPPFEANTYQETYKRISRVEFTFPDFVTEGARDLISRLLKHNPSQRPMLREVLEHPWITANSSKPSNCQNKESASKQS


How the values were obtained:
[1] = biological target: T1, Aurora A (human (endogenous in HeLa)); assay: co-IP; mitotic HeLa chromatin extract (micrococcal nuclease digest, 300 mM NaCl); overnight immunoprecipitation with rabbit anti-Aurora-A (Abcam Ab12875), protein G Dynabeads, washes with 300 mM NaCl and 0.1% IGEPAL, western blot
[2] = biological target: CENP-A (human (endogenous in HeLa)) (UniProt P49450); assay: co-IP; HeLa chromatin extract (micrococcal nuclease digest, 300 mM NaCl); overnight immunoprecipitation with in-house goat anti-CENP-A antibody, protein G Dynabeads, washes with 300 mM NaCl and 0.1% IGEPAL, elution with the immunising peptide, western blot

binding [1] | binding [2] | Molecule
binds | – | CENP-A (from UniProt P49450 1-140)
binds | binds | NDC80 (from UniProt O14777 1-642)
– | binds | Aurora A (enzyme, UniProt O14965 1-403) MDRSKENCISGPVKATAPVGGPKRVLVTQQFPCQNPLPVNSGQAQRVLCPSNSSQRIPLQAQKLVSSHKPVQNQKQKQLQATSVPHPVSRPLNNTQKSKQPLPSAPENNPEEELASKQKNEESKKRQWALEDFEIGRPLGKGKFGNVYLAREKQSKFILALKVLFKAQLEKAGVEHQLRREVEIQSHLRHPNILRLYGYFHDATRVYLILEYAPLGTVYRELQKLSKFDEQRTATYITELANALSYCHSKRVIHRDIKPENLLLGSAGELKIADFGWSVHAPSSRRTTLCGTLDYLPPEMIEGRMHDEKVDLWSLGVLCYEFLVGKPPFEANTYQETYKRISRVEFTFPDFVTEGARDLISRLLKHNPSQRPMLREVLEHPWITANSSKPSNCQNKESASKQS
